Two molecules from article PMC10879504 can be followed below.

Chains of the proteins cited; added tags and fusions are not shown.
UniProt Q86TM6: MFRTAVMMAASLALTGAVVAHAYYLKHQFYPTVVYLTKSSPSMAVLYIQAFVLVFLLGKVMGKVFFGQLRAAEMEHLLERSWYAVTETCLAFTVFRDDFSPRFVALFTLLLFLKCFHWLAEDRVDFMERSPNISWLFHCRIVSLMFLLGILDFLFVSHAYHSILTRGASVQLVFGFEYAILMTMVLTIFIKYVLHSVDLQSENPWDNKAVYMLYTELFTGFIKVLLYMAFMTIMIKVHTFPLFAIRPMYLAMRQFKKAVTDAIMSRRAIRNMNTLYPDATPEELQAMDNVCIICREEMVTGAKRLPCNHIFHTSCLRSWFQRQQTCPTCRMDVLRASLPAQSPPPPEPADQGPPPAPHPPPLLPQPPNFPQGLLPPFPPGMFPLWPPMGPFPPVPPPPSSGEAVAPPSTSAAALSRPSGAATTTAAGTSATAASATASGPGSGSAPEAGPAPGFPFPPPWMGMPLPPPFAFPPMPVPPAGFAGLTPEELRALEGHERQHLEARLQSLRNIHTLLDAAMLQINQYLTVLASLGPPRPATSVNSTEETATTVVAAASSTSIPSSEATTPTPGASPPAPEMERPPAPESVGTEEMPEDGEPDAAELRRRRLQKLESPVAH

Results are given in words; binding and its absence hold for the method and conditions named. In cells and extracts the contact can be indirect. Some binding calls cover weakened binding; strength is not graded here. For some assays here: Tags and fused reporters may be left off the sequences shown.

In assay [1] the target is HMG-CoA reductase degradation protein 1 (HRD1), endogenous (human (endogenous in Caco-2)) (UniProt Q86TM6). The assay is described as follows: co-IP; endogenous TMEM2 and HRD1 in Caco-2 cells; I/R or H/R named in the text.
The target of assay [2] is Myc-HRD1 (human) (UniProt Q86TM6). Nature of the assay: co-IP; HEK293 cells transfected with Flag-TMEM2 and Myc-HRD1 or its deletion mutants for 48 h; antibody on Protein A/G magnetic beads.

B1: transmembrane protein 2 (TMEM2), endogenous (protein, UniProt Q9UHN6 1-1383)
chain: MYATDSRGHSPAFLQPQNGNSRHPSGYVPGKVVPLRPPPPPKSQASAKFTSIRREDRATFAFSPEEQQAQRESQKQKRHKNTFICFAITSFSFFIALAIILGISSKYAPDENCPDQNPRLRNWDPGQDSAKQVVIKEGDMLRLTSDATVHSIVIQDGGLLVFGDNKDGSRNITLRTHYILIQDGGALHIGAEKCRYKSKATITLYGKSDEGESMPTFGKKFIGVEAGGTLELHGARKASWTLLARTLNSSGLPFGSYTFEKDFSRGLNVRVIDQDTAKILESERFDTHEYRNESRRLQEFLRFQDPGRIVAIAVGDSAAKSLLQGTIQMIQERLGSELIQGLGYRQAWALVGVIDGGSTSCNESVRNYENHSSGGKALAQREFYTVDGQKFSVTAYSEWIEGVSLSGFRVEVVDGVKLNLLDDVSSWKPGDQIVVASTDYSMYQAEEFTLLPCSECSHFQVKVKETPQFLHMGEIIDGVDMRAEVGILTRNIVIQGEVEDSCYAENQCQFFDYDTFGGHIMIMKNFTSVHLSYVELKHMGQQQMGRYPVHFHLCGDVDYKGGYRHATFVDGLSIHHSFSRCITVHGTNGLLIKDTIGFDTLGHCFFLEDGIEQRNTLFHNLGLLTKPGTLLPTDRNNSMCTTMRDKVFGNYIPVPATDCMAVSTFWIAHPNNNLINNAAAGSQDAGIWYLFHKEPTGESSGLQLLAKPELTPLGIFYNNRVHSNFKAGLFIDKGVKTTNSSAADPREYLCLDNSARFRPHQDANPEKPRVAALIDRLIAFKNNDNGAWVRGGDIIVQNSAFADNGIGLTFASDGSFPSDEGSSQEVSESLFVGESRNYGFQGGQNKYVGTGGIDQKPRTLPRNRTFPIRGFQIYDGPIHLTRSTFKKYVPTPDRYSSAIGFLMKNSWQITPRNNISLVKFGPHVSLNVFFGKPGPWFEDCEMDGDKNSIFHDIDGSVTGYKDAYVGRMDNYLIRHPSCVNVSKWNAVICSGTYAQVYVQTWSTQNLSMTITRDEYPSNPMVLRGINQKAAFPQYQPVVMLEKGYTIHWNGPAPRTTFLYLVNFNKNDWIRVGLCYPSNTSFQVTFGYLQRQNGSLSKIEEYEPVHSLEELQRKQSERKFYFDSSTGLLFLYLKAKSHRHGHSYCSSQGCERVKIQAATDSKDISNCMAKAYPQYYRKPSVVKRMPAMLTGLCQGCGTRQVVFTSDPHKSYLPVQFQSPDKAETQRGDPSVISVNGTDFTFRSAGVLLLVVDPCSVPFRLTEKTVFPLADVSRIEEYLKTGIPPRSIVLLSTRGEIKQLNISHLLVPLGLAKPAHLYDKGSTIFLGFSGNFKPSWTKLFTSPAGQGLGVLEQFIPLQLDEYGCPRATTVRRRDLELLKQASKAH
Turning to B1, the binding result in assay [1] was “binds”.

B2: Flag-TMEM2 (protein, UniProt Q9UHN6 1-1383)
chain: B1 chain
With B2, the binding result in assay [2] was “binds”.
